# Measurements: PubChem BioAssay AID1117289 (Broad Institute, 2014)
# By UniProt entry, the sequences of proteins in these tests, tags left out. Where a name states a change or a piece, a line headed by the entry shows the natural chain unless it says otherwise.
# UniProt Q6P179: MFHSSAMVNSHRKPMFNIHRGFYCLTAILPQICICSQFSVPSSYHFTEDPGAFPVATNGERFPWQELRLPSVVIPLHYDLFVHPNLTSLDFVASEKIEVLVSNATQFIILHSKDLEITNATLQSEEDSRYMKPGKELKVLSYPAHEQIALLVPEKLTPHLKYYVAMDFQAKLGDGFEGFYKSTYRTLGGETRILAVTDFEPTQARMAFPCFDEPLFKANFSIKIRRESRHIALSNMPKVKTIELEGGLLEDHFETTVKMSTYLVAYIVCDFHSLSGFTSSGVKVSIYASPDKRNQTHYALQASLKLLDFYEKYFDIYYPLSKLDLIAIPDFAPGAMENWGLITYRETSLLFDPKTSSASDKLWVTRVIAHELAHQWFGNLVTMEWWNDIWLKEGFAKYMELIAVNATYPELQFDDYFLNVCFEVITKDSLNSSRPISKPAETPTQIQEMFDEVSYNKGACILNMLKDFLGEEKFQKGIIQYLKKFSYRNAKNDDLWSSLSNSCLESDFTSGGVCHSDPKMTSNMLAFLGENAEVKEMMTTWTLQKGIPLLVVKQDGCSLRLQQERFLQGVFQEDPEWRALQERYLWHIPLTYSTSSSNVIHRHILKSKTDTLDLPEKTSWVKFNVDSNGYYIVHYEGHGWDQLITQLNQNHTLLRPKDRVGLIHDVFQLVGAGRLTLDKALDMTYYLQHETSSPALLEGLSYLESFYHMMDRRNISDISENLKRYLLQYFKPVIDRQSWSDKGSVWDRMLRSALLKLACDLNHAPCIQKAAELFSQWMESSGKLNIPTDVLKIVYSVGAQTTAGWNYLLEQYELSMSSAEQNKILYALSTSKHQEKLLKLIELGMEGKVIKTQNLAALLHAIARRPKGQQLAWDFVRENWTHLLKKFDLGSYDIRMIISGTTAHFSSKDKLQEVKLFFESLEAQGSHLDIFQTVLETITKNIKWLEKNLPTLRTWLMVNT
# Only results without a clear call are listed here; the source files them as inconclusive.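 How the source made its calls: active means inhibitor whose fitted half-maximal dose is at most twice the top tested dose in every run; inconclusive means runs disagree, poor fit, or flat fit inhibiting 30 to 70%; inactive means every run inactive, flat, rising or too weak.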
# Biological target: Endoplasmic reticulum aminopeptidase 2 (Homo sapiens) (UniProt Q6P179)
# Experiment: inhibition of ERAP2 Arg-AMC cleavage – biochemical, plate reader, dry powder, set 2, selectivity assay for selective ERAP1 modulator project, dose response (AID 1117289)
# Conditions: purified ERAP2, Arg-AMC hydrolysis fluorescence, 1 h; at 50 µM (top of the series)
compound,measurement,value
O=C(O)c1ccc(Br)c(S(=O)(=O)Nc2cc(C(F)(F)F)ccc2N2CCCCC2)c1,"activity change, negative = inhibition",inconclusive: -18.4%
